Results published in patent publication US7807854B2, “Effective use method of medicaments and method of preventing expression of side effect” (priority 2004, dated 2010).
At least one compound was matched to its structure with a doubt left. Some entries share one result that the patent states for a list of compounds.

How the values were obtained:
[1] = tested on: skin allograft; experiment: Prolonging effect on skin allograft survival between MHC-compatible rat strains (LEW donor, F344 recipient); assay type: in vivo
Text: Five animals were included per group, and all rats were bread in separate cages. LEW(RT1^l) was selected as donor, and F344(RT1^lvl) was selected as recipient. A part of dermis (1.8×1.8 cm) on the back of recipient was excised, and after giving several drops of penicillin solution (40,000 U/mL, in saline) thereon, a full thickness skin graft (1.8×1.8 cm) prepared from abdominal part of donor was put thereon. First-aid adhesive tape (30×72 mm) was applied so that the center pad thereof lies on the graft, and secured by binding aeration tape (adhesive bandage, 3.8×15 cm) therearound. At 5 days, the first-aid adhesive tape and the aeration tape were removed by cutting with scissors.
Drug administration was conducted by orally administering 0.5 mL/100 g B.W. of drug once a day everyday from the day of skin transplantation. Control group was received distilled water. As the CsA, Sandimmun injection (50 mg/mL) diluted in distilled water was administered. As the FK506, the filling of Prograf capsule (Fujisawa Pharmaceutical Co., Ltd.) suspended in distilled water was administered. […] A combinational administration group was received a mixture prepared by mixing liquids to be administered right before administration.
Grafts were observed everyday from fifth day of transplantation at which the first-aid adhesive tape was removed, and the condition that 90% or more of graft epithelium necrotized to turn brown was determined as occurrence of rejection. Number of days from transplantation to determination of rejection was defined as a survival time.
Mean value of survival times for each group was calculated as a mean survival time (MST). In each group (n=5), the third-longest survival time was defined as a median value.

[2] = tested on: transplanted heart; experiment: Prolonging effect on heart graft survival between MHC-incompatible rat strains (DA donor, LEW recipient); assay type: in vivo; conditions: KNF-299 0.3 mg/kg oral once daily
Description: Effect of KNF-299 was examined in allogeneic heart transplantation between MHC-incompatible rats. Using combination of DA (RT1^a) rat as a donor, and LEW (RT1^l) rat as a recipient, heterotopic heart transplantation in which heart of donor is joined to neck vessel of recipient with a cuff was conducted with reference to a literature (Microsurgery; 21, 16-21, 2001) or the like.
Drug was administered orally once a day everyday from the day of heart transplantation. MPA was prepared from the product purchased from Wako Pure Chemical Industries, Ltd. so that the concentration was 20 mg/mL in a saline containing 0.5% carboxymethyl cellulose, 0.4% Tween 80, and 0.9% benzyl alcohol, and administered in 0.1 mL/100 g B.W.
KNF-299 was dissolved in distilled water in a concentration of 0.06 mg/mL, and administered in 0.5 mL/100 g B.W. A control group was received a vehicle used for MPA administration liquid.
Cardiac pulsation of the transplanted heart was checked by inspection or palpation, and determination of rejection was made when cardiac pulsation stopped. Number of days from transplantation to determination of rejection was defined as survival time. Mean value of survival time in each group was calculated as mean survival time (MST).

| Compound | Prolonging effect on survival of skin graft ([1]; FK506 10 mg/kg single administration, oral) [days] | Survival time (day) of skin graft, Individual survival day ([1]; KNF-299 0.03 mg/kg oral once daily, Test 2) | Survival time (day) of skin graft, Individual survival day ([1]; KNF-299 0.1 mg/kg oral once daily, third test (headed Test 2)) | Survival time (day) of skin graft, Individual survival day ([1]; KNF-299 3 mg/kg oral once daily, Test 1) | Survival time (day) of transplanted heart, Individual survival day [2] |
| --- | --- | --- | --- | --- | --- |
| C=CC[C@@H]1/C=C(\C)C[C@H](C)C[C@H](OC)[C@H]2O[C@@](O)(C(=O)C(=O)N3CCCC[C@H]3C(=O)O[C@H](/C(C)=C/[C@@H]3CC[C@@H](O)[C@H](OC)C3)[C@H](C)[C@@H](O)CC1=O)[C@H](C)C[C@@H]2OC [FK506, tacrolimus, reference compound] | ≥ 30 | – | – | – | – |
| NC(CO)(CO)CCc1ccc(Sc2cccc(OCc3ccccc3)c2)cc1Cl [KNF-299, 2-amino-2-[4-(3-benzyloxyphenylthio)-2-chlorophenyl]ethyl-1,3-propanediol] | – | 8, 9, 9, 9, 10 day | 8, 8, 9, 9, 10 day | 17, >30, >30, >30, >30 day | 6, 7, 7, 7, 8 day |
